## Percent effect of library compounds

Protein sequences, listed by entry. Tags and fused reporters are not part of them. Residues count along the entry.
UniProt A4I591, 1-473: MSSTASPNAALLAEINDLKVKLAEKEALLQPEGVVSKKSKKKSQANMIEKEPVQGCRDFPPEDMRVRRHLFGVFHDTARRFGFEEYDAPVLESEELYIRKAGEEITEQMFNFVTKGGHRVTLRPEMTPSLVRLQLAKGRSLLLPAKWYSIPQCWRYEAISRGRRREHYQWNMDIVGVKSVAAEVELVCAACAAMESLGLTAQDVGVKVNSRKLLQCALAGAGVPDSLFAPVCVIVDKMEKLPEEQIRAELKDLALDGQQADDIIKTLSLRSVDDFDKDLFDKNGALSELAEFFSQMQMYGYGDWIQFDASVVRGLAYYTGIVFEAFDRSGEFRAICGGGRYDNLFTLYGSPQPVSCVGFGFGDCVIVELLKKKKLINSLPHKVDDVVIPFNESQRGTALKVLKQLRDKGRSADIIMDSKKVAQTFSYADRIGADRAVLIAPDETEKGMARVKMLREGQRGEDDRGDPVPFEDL

Data taken from ChEMBL document CHEMBL3988442, “University of Dundee, Small-Polar-MMV Screening Library” (2021).

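Enzyme assay of histidyl-tRNA synthetase; the read-out is not stated. Target: Histidine-tRNA ligase, Leishmania infantum (UniProt A4I591). Tested at 30 µM. The record gives no direction; compounds that gave an IC50 in retests scored well above the rest, so higher reads as stronger inhibition. The assay is labelled LdHisRS but filed under L. infantum. Of about 69,000 compounds tested this way, about 410 (0.6%) reached 50% or more in at least one test.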

The filed quantity is “Percent Effect” (%).
The controls that fix the scale are not given in the record; negative values are as filed.
Compounds were drawn at random from those tested, without regard to their results.

- CC(C)n1[nH]c(=O)c2c1NC(=O)CC2c1cccc(OC(F)F)c1 (centres unmarked) | -1.905%
- Cc1nnc(NC(=O)NCc2ccnc(N(C)C)c2)s1 | 18.8%
- CC(=O)N1CCN(c2cc(-n3cccc3)ncn2)CC1 | 10.75%
- c1nc(N2CCCC2Cn2cncn2)c2sccc2n1 (centres unmarked) | 20.18%
- CCCc1noc(CN2CCC(NC(=O)c3ccc(C)s3)CC2)n1 | 22.35%
- O=C(C1COCCO1)N1CCN(Cc2ccc3c(c2)CCO3)CC1 (centres unmarked) | 13.64%
- CS(=O)(=O)N1CCN(C(=O)C2CSCCC(=O)N2)CC1 (centres unmarked) | 23.08%
- CCOc1ccc(Cl)c(C(=O)NC(C)C(N)=O)n1 (centres unmarked) | 20.55%
- Cc1cccc(CNC(=O)Nc2ccc3c(c2)CCCC(=O)N3)c1 | 15.52%
- Cc1cc(C)n(C2CCCN(C(=O)c3ccc(F)cc3F)C2)n1 (centres unmarked) | 17.31%
- Cc1ccc(C(=O)N2CCc3ncnc(C)c3CC2)cc1F | -5.405%
- CCc1nccn1CC(=O)N1C[C@H]2CC[C@@H]1CN(c1ncccn1)C2 | 16.44%
- CN(C[C@@H]1CCC[C@@H]2CN(Cc3cccnc3)C[C@@H]21)C1CC1 | 17.95%
- Fc1cccnc1O[C@@H]1CN(Cc2ccccn2)[C@@H]2CCCO[C@@H]21 | 17.95%
- Cc1nn(C)c2nc(N(CCN(C)C)CC3CCCO3)sc12 (centres unmarked) | 12.5%
- O=C(c1cnc2c(c1)CCC2)N1CCCC(CO)(CC2CC2)C1 (centres unmarked) | 0%
- Cc1csc(CNC(=O)NCc2ccc3c(c2)OCCO3)n1 | 14.88%
- CCc1nc(CC(=O)N2CCOCC2c2ncon2)cs1 (centres unmarked) | -6.154%
- Cn1nc(-c2ccc(Cl)cc2)c(Br)c1C(=O)O | 5.263%
- COc1c(CNCC(O)c2cccc(F)c2)c(C)nn1C (centres unmarked) | 18.58%
- CCn1cc(CNc2ccc(F)c(N3CCCS3(=O)=O)c2)cn1 | 41.1%
- Cc1cc(CC2COCCN(CCc3ccccc3)C2)ncn1 (centres unmarked) | 19.86%
- O=S1(=O)NC(c2ccnc(N3CCCC3)n2)=Nc2ccccc21 | 10%
- Cc1cccc(CN2C(=O)CCC23CCN(C(=O)N2CCCC2)CC3)n1 | 8.257%
- Cc1nc(CCNC(=O)C2CC(=O)N(C(C)C)C2)sc1C (centres unmarked) | 19.2%
- COc1ccc(S(=O)(=O)Nc2cccnc2-n2cncn2)cc1C | 15.56%
- CCN(CC1CCOC1)C(=O)c1ccn(-c2ccc(OC)cc2)n1 (centres unmarked) | 10.2%
- COCC(=O)NCc1cc(=O)n2c(n1)CN(Cc1cccs1)CCC2 | -80.91%
- O=C(NCc1cccnc1-n1cncn1)c1cc(Cl)ccn1 | 10.59%
- CC(C)NC(=O)C1CN(C(=O)N(C)C)CC12CCOCC2 (centres unmarked) | 6.306%
- Fc1cccc(CN2CCC[C@@H](Cn3nnc(-c4ccccn4)n3)C2)c1 | 8.392%
- Cc1cccc(CN2CCc3ncnc(Oc4cccnc4)c3CC2)n1 | 28.72%
- COC[C@@H]1CC[C@H]2[C@H](CCN2C(=O)c2ccncc2F)O1 | 22.64%
- CCN(C(=O)Nc1nncs1)C(C)c1cccc(OC)c1 (centres unmarked) | 21.52%
- CC(=O)N1CCCC(C(=O)NCc2noc(Cc3ccccc3)n2)C1 (centres unmarked) | 4%
- Cc1nc(N2CCCC2)ncc1-c1cc(O)nc(N2CCOCC2)n1 | 15.52%
- CC(NC(=O)Cc1cccs1)c1nnc2n1CCCCC2 (centres unmarked) | 12.31%
- Cc1ncsc1C(=O)NCCOc1ncc(Cl)cc1Cl | 21.15%
- O=C(O)c1cncc(Cc2ccc(F)cc2)c1 | 12.77%
- COC(=O)c1ccc(Cn2nc(C)cc2C)c(OC)c1 | 11.29%
- Cc1nncn1CCNC(=O)C1SCCc2sccc21 (centres unmarked) | 13.33%
- CC(=O)N1CCN(C(=O)NCc2ccccc2Cn2cncn2)CC1 | 8.163%
- CCN1CCC2(CC1)CN(CCO)c1ccccc12 | 1.724%
- Cc1noc(CCCC(=O)NC(C)c2ccccn2)n1 (centres unmarked) | 16.8%
- O=C1CC(NS(=O)(=O)c2ccc(Br)cc2)CN1 (centres unmarked) | 8.989%
- COCc1nc2cc(NCc3cc[nH]n3)ccc2o1 | 106.2%
- CC(NC(=O)C1CCCC1)c1nncn1C(C)C (centres unmarked) | 10.75%
- CCCc1nc(CN(CC)C(=O)c2onc3ccccc23)no1 | -4.082%
- CCn1c(C)cc(C(=O)N2CCC(NC(=O)c3cc(C)no3)CC2)c1C | 22.22%
- O=C(CSc1nccc(-c2ccc3c(c2)OCO3)n1)N1CCOCC1 | 10.31%
- CCn1ccc(C(=O)NCCCN2CCOCC2)n1 | 8.491%
- CC(C)Cc1cc(C(=O)N2CCCN(c3cccnn3)CC2)[nH]n1 | 14.58%
- Cc1csc(CNC(=O)N2CCN(Cc3ccco3)CC2)n1 | 13.16%
- O=S(=O)(c1ccccc1)N1CCCCC1c1cc[nH]n1 (centres unmarked) | -11.43%
- Cc1nnc(SCCCNC(=O)Cc2ccc3c(c2)OCO3)s1 | -11.83%
- O=c1oc(-c2ccc(F)cc2)nn1CN1CCCCC1 | -1.739%
- CN(C)S(=O)(=O)CCCN1CCCC1c1noc(C2CC2)n1 (centres unmarked) | 18.64%
- COc1ccc(CN2CCN(CC3CC3)[C@@H]3CS(=O)(=O)C[C@@H]32)cc1O | 11.46%
- CCn1c(C)nnc1Sc1nn2cc(C)nc2s1 | 24.05%

4 of the entries, repeated:

SMILES	effect
O=C(CSc1nccc(-c2ccc3c(c2)OCO3)n1)N1CCOCC1	10.31%
O=C(O)c1cncc(Cc2ccc(F)cc2)c1	12.77%
COCC(=O)NCc1cc(=O)n2c(n1)CN(Cc1cccs1)CCC2	-80.91%
Cc1cccc(CNC(=O)Nc2ccc3c(c2)CCCC(=O)N3)c1	15.52%